# Results taken from PubChem BioAssay AID2685 (National Center for Advancing Translational Sciences (NCATS), 2010).
# The list shows a part of the results. These are further read-outs of the screen, such as a control signal, another cell line or another target. No call is given for them. Most of these compounds were active or inconclusive in the main read-out, so they are no random draw. The note in brackets gives the kind of curve behind each potency; many fits are weak.
# Assay: qHTS Assay for Lipid Storage Modulators in Drosophila S3 Cells;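 as to cell number change: cells counted by Cell Tracker Red CMTPX staining in the red channel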
# Settings: BODIPY lipid droplet fluorescence, 18-24 h; for cell number change: measured here: cell count max response, cells fed with added oleic acid
# Method in brief: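 Laser-scanning cytometry quantifies lipid droplet accumulation (500–530 nm total intensity; droplet/cell object ratio) in oleic acid-fed (400 uM added) Drosophila S3 cells treated with a concentration series. 20 uM Triacsin C defined 100% inhibition.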
# [1] = measured here: cell number channel AC50, cells fed with added oleic acid
# [2] = measured here: lipid fluorescence (Fed channel) AC50, cells fed with added oleic acid
Compound,AC50 [1],AC50 [2],cell number change [%]
COc1ccc(C(=O)CSc2nnc(CNC(=O)c3ccc(OC)cc3)n2C)cc1,"1840 nM [rising, single point]","2060 nM [rising, partial curve]",–
CC(=O)Nc1ccc(C(=O)CSc2nnc(Cc3ccccc3)o2)cc1,"1460 nM [rising, partial curve, poor fit]",–,–
CNC(=S)Nc1ccc2[nH]c(=O)[nH]c2c1,"20600 nM [rising, partial curve]",–,150
CC(C)N1CCc2c(sc(NC(=O)C3CCCCC3)c2C(N)=O)C1,–,"5.17 nM [falling, full curve, poor fit]",10.1
O=C(COC(=O)/C=C/c1ccc(OC(F)F)cc1)NC1CCCC1,–,"116 nM [falling, full curve]",0.423
Nc1ccc(/C=C/c2ccc3ncccc3c2)cc1,–,"6510 nM [rising, partial curve, poor fit]",26.7
NS(=O)(=O)c1ccc(NC(=O)CN2CCc3ccccc32)cc1,–,"4.61 nM [falling, full curve, poor fit]",12.6
Cc1cc(C)cc(C(=O)Nc2nnc(SCC(=O)NCC3CCCO3)s2)c1 (configuration not stated),"920 nM [falling, full curve, poor fit]",–,-36.9
O=C(c1cc(-c2ccc(Cl)cc2)on1)N1CCc2ccccc2C1,–,"6510 nM [falling, single point]",26.5
Cc1ccc(C(=O)Nc2ccc(OCc3ccccc3)cc2)cc1[N+](=O)[O-],–,"3660 nM [falling, single point]",2.59
O=C1C=C(c2ccccc2)C(=O)N1Nc1ccccc1,"82 nM [falling, full curve, poor fit]",–,-11.9
COc1ccc(N(CC(=O)NC2CCCCCC2)S(=O)(=O)c2ccccc2)cc1Cl,–,"29100 nM [falling, single point]",-11.7
c1ccc(-n2nnnc2SCCCSc2nc3ccccc3s2)cc1,–,–,16.6
Cc1ccc(SCc2nn(C)c(Cl)c2C=O)cc1,–,"7310 nM [falling, single point]",-22.1
COc1ccccc1-c1noc(-c2ccccc2C(=O)Nc2cccnc2)n1,"1300 nM [rising, partial curve]","731 nM [rising, full curve]",0.45
Cc1ccccc1/C=N/NC(=O)Cc1ccc(Cl)cc1,"29100 nM [falling, single point]","29100 nM [falling, single point]",-35.7
NNC(=O)CCC(=O)Nc1ccccc1,"326 nM [falling, full curve]","461 nM [falling, full curve]",-0.704
Cn1c(N)c(C(=O)COC(=O)c2cc(C(F)(F)F)nc3ccccc23)c(=O)n(Cc2ccccc2)c1=O,"9200 nM [rising, partial curve, poor fit]","8200 nM [rising, partial curve, poor fit]",32.9
Cc1ccc(C(=O)N2CCC(C)CC2)cc1NC1=NC2CS(=O)(=O)CC2S1 (configuration not stated),"146 nM [rising, full curve, poor fit]","23100 nM [rising, single point]",18.3
O=C(N/N=C/c1ccc(OC(F)F)cc1)c1ccc(CSc2nc3ccccc3[nH]2)cc1,–,"9200 nM [rising, partial curve]",5.13
O=C(CCn1c(=O)oc2ccc(Cl)cc21)N1CCN(c2ccccc2)CC1,–,–,21.8
C=CCNC(=S)NNC(=O)c1ccc(OCC(C)C)cc1,–,"2310 nM [rising, partial curve]",29.5
Cc1ccc(Cl)cc1NC(=O)Cn1nc(-c2cccs2)ccc1=O,"1640 nM [rising, partial curve]",–,17.6
COc1ccc(CCN2CN(S(=O)(=O)c3ccc(C)cc3)c3nc4ccccc4nc32)cc1OC,–,"2590 nM [rising, partial curve]",11
COc1ccc(NS(=O)(=O)c2ccc(NC(=S)NC(=O)CC(C)C)cc2)cc1,–,"8200 nM [rising, partial curve]",-3.44
CCOC(=O)C1=NN(c2ccc(C)cc2)CC1C(=O)OC (configuration not stated),–,–,11.8
O=C1CCc2cc(S(=O)(=O)N3CCCC3C(=O)N3CCN(c4ccccc4)CC3)ccc2N1 (configuration not stated),"1300 nM [falling, single point]","1160 nM [falling, partial curve]",–
Cc1cc(C(=O)N2CCN(c3ccc(F)cc3)CC2)on1,–,"651 nM [rising, full curve]",4.61

# Entries of single compounds from above:
# `C=CCNC(=S)NNC(=O)c1ccc(OCC(C)C)cc1` is entered as AC50 [2]: 2310 nM [rising, partial curve]; cell number change [%]: 29.5
# `Cc1ccc(SCc2nn(C)c(Cl)c2C=O)cc1` is entered as AC50 [2]: 7310 nM [falling, single point]; cell number change [%]: -22.1
